This assay concerns SH-SY5Y cells. Put plainly: SRB cytotoxicity assay. It is filed as cell-based. To be noted: Homo sapiens, 48 h, read-out: GI50 ± SD.

Our source for the GI50 values is paper PMC10500570 (ACS Omega, 2023).

`COc1cc2c(cc1OC)C(=O)C(CC1CCN(Cc3ccccc3)CC1)C2` (stereo not shown) [donepezil, reference compound]: the GI50 turned out to be 92.7 ± 8.49 µM.
